Literature values in publication PMC8071183 (International Journal of Molecular Sciences, 2021).

Test system: GIRK channels
Settings: read-out: IC50 of direct GIRK channel block; cited from earlier work

O=C(CCCN1CCC(O)(c2ccc(Cl)cc2)CC1)c1ccc(F)cc1 [haloperidol]
IC50: 41 µM
